Measurements taken from doi:10.1101/2023.08.23.554416.
Like-named read-outs stand apart in the source and are kept apart here. Results are given in words; binding and its absence hold for the method and conditions named. Some binding calls cover weakened binding; strength is not graded here. Blank lines part the entries; values can stand above or below the binder they belong to.

What was measured:
Experiment in all cases: SEC
[1] = biological target: T1, LEUCINE-RICH REPEAT EXTENSIN 2 LRR domain (LRX2LRR), residues 1-385 (Arabidopsis thaliana) (UniProt O48809)
T1 sequence: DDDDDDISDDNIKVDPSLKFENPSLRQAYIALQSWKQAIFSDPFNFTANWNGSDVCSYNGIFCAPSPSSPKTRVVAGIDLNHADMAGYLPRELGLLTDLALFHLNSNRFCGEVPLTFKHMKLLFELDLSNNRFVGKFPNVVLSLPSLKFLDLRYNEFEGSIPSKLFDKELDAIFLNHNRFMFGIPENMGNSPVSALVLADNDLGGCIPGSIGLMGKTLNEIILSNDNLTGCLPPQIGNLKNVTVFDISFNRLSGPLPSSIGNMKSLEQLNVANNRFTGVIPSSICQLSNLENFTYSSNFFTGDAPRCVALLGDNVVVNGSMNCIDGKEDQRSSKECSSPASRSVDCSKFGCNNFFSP

[2] = biological target: T2, LEUCINE-RICH REPEAT EXTENSIN 1 LRR domain (LRX1LRR), residues 28-404 (Arabidopsis thaliana) (UniProt O65375)
T2 sequence: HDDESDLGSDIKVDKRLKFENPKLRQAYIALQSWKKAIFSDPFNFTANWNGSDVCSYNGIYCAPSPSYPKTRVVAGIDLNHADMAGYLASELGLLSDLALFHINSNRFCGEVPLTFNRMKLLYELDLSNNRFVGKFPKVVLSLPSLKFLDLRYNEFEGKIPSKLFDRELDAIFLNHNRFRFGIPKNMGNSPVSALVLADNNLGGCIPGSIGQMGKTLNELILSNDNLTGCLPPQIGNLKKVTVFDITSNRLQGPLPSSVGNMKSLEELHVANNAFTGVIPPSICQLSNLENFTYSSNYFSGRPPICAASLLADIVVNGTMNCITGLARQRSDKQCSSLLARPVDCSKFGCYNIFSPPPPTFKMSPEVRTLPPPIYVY

[3] = biological target: T2, LEUCINE-RICH REPEAT EXTENSIN 1 LRR domain (LRX1LRR), residues 28-404 (Arabidopsis thaliana); remark: listed apart in the source

binding [1]: binds
B1: LEUCINE-RICH REPEAT EXTENSIN 2 LRR domain (LRX2LRR), residues 1-385 (domain or fragment, UniProt O48809 29-385)
chain: T1 sequence

binding [2]: binds
B2: LEUCINE-RICH REPEAT EXTENSIN 1 LRR domain (LRX1LRR), residues 28-404 (domain or fragment, UniProt O65375 28-404)
chain: T2 sequence

binding [1]: binds | binding [2]: binds | binding [3]: binds
B3: RALF22 mature peptide, recombinant, co-expressed with LRX1LRR or LRX2LRR (peptide)
peptide: AQKKYISYGAMRRNSVPCSRRGASYYNCQRGAQANPYSRGCSTITRCRR
